In publication PMC13423804 one finds binding data, which are given here for three molecules.

Chains of the proteins cited; added tags and fusions are not shown.
UniProt P0A9A6: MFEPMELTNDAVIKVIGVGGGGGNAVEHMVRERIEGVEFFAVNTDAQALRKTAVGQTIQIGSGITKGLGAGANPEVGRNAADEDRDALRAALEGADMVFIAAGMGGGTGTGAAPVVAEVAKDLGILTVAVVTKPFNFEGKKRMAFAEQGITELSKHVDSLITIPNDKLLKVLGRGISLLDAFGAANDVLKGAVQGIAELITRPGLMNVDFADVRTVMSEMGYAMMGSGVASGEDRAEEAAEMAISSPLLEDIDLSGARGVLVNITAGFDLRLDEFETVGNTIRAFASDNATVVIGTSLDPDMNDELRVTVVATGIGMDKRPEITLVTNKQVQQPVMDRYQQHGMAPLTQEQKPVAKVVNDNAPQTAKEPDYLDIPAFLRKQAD

No constants are given. Whether binding was seen depends on the method and setting. Some results given as binding are weak or reduced against the parent protein; the word gives no strength. Tags and fused reporters may be left off the sequences shown.

In one experiment the target is T1, FtsA (E. coli) (UniProt P0ABH0).
T1 sequence: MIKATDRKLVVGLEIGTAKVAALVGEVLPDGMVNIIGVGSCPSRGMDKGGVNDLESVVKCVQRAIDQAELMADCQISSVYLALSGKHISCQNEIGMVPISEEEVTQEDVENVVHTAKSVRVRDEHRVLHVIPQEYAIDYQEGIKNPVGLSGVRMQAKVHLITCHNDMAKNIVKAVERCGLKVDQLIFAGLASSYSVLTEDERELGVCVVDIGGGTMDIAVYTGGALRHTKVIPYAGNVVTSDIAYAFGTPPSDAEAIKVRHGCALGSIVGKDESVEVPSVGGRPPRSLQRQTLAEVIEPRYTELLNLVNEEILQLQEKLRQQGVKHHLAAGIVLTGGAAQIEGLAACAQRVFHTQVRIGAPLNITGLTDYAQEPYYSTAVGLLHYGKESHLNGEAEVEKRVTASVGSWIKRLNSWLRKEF
The experiment in a line: TIRF microscopy of FtsZ recruitment by FtsA to supported lipid bilayers (competition); FtsA (0.4 μM) and Alexa Fluor 488-labelled FtsZ (1.25 μM) self-organised on supported lipid bilayers in 50 mM Tris-HCl pH 7.4, 150 mM KCl, 5 mM MgCl2 with 4 mM ATP and 4 mM GTP; Cy5-labelled His-tagged peptide (0.4 μM) added during imaging; FtsZ signal at the membrane followed as a proxy; both purified.

Experiment [1] has as its target T2, ^N-pepPBP1b–GFP–H3H4 fusion (α, 1–63, M46L) (E. coli) (UniProt P02919).
T2 sequence: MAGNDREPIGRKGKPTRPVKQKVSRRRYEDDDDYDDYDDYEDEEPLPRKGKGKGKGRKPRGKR
In words: two-hybrid; POLAR two-hybrid assay in E. coli cells: peptide–GFP–H3H4 bait on a heterologous PopZ focus (0.2% L-arabinose), mScarlet–FtsA prey (250 µM IPTG), LB, 30 °C, fluorescence microscopy.

For the molecule “Alexa Fluor 488-labelled FtsZ (from UniProt P0A9A6 1-383)”, the binding result in the experiment with FtsA (E. coli) is listed as “binds”.

B1: ^N-pepPBP1b (residues 1–64) peptide with N-terminal 6× His tag and C-terminal cysteine, Cy5-labelled (peptide, UniProt P02919 1-64)
peptide: MAGNDREPIGRKGKPTRPVKQKVSRRRYEDDDDYDDYDDYEDEEPMPRKGKGKGKGRKPRGKRGC
modifications: sulfo-cyanine5 (Cy5) maleimide on the added C-terminal cysteine
For the molecule B1, the binding result with FtsA (E. coli) was “binds”.

B2: mScarlet–FtsA fusion (protein, UniProt P0ABH0 1-420)
chain: MIKATDRKLVVGLEIGTAKVAALVGEVLPDGMVNIIGVGSCPSRGMDKGGVNDLESVVKCVQRAIDQAELMADCQISSVYLALSGKHISCQNEIGMVPISEEEVTQEDVENVVHTAKSVRVRDEHRVLHVIPQEYAIDYQEGIKNPVGLSGVRMQAKVHLITCHNDMAKNIVKAVERCGLKVDQLIFAGLASSYSVLTEDERELGVCVVDIGGGTMDIAVYTGGALRHTKVIPYAGNVVTSDIAYAFGTPPSDAEAIKVRHGCALGSIVGKDESVEVPSVGGRPPRSLQRQTLAEVIEPRYTELLNLVNEEILQLQEKLRQQGVKHHLAAGIVLTGGAAQIEGLAACAQRVFHTQVRIGAPLNITGLTDYAQEPYYSTAVGLLHYGKESHLNGEAEVEKRVTASVGSWIKRLNSWLRKEF
Regarding B2, in experiment [1], the binding entry is on record as “binds”.
